Results on 5 sequences are retold here after PMC6053526.

Sequences of proteins named here, by UniProt entry; tags and fusion partners are left off. A change or cut given only in a name is not applied to a line headed by its entry. Residues count along the entry.
UniProt Q93WU9: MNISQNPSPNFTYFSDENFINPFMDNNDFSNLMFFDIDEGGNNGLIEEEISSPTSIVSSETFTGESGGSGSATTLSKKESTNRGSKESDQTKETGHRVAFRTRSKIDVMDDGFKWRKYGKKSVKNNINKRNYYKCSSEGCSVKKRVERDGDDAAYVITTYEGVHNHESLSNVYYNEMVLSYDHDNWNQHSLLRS
UniProt Q8VWQ5, 86-173: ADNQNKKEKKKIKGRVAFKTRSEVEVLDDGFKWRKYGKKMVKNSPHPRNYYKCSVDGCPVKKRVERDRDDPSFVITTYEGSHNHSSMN

Data set [1] addresses GST-AtWRKY51-C (Arabidopsis thaliana) (UniProt Q93WU9). Put plainly: EMSA. The settings on record: 5x buffer (3 uL in 14 uL): 20% glycerol, 5 mM MgCl2, 2.5 mM EDTA, 2.5 mM DTT, 250 mM NaCl, 50 mM Tris-HCl pH 7.5, 0.25 mg/ml poly(dI-dC); 0.5 ug protein; 10 min RT; recombinant protein; protein details: GST; label: 32P. A general note: In EMSA bound probe runs differently from free probe, usually more slowly.

Data set [2] concerns the target GST-AtWRKY50-C (Arabidopsis thaliana) (UniProt Q8VWQ5). As to the kind of experiment: EMSA. Conditions: 5x buffer (3 uL in 14 uL): 20% glycerol, 5 mM MgCl2, 2.5 mM EDTA, 2.5 mM DTT, 250 mM NaCl, 50 mM Tris-HCl pH 7.5, 0.25 mg/ml poly(dI-dC), 0.5 ug protein, 10 min RT, recombinant protein, residues 86-173, protein details: GST (N-term), label: 32P.

A negative result means that nothing was seen under these conditions. For some of these results: At least one verdict rests on a figure or table, not on a statement of the authors. For some of these results: The comparison behind a weaker result is the experiment's own reference, which may not be listed here. For some of these results: The exact form of at least one protein or probe is not confirmed.

With “GGTGATCTATTGACTGTTTCTCTACGTCACTA (double strand) [fragment A]”, the binding result in data set [1] is “no binding”.

Consider “GGGGATGTGGCGGCATATATTCTTCAGGACCCTTC / GGGGAAGGGTCCTGAAGAATATATGCCGCCACATC [Dm1]”, for which the binding result in data set [2] (almost abolished) was “binds more weakly”.

In the case of “TTTCTCTACGTCACTATTTTACTTACGTCATA (double strand) [fragment B]”, the binding result in data set [2] and in data set [1] was “no binding” throughout.

On to “TTTTACTTACGTCATAGATGTGGCGGCATATA (double strand) [fragment C]”, for which the binding result in data set [2] and in data set [1] was “no binding” throughout.

Take “GATGTGGCGGCATATATTCTTCAGGACTTTTC (double strand) [fragment D]”: the binding result in data set [1] is reported as “no binding”.
